# Experimental data as given in PubChem BioAssay AID624291 (National Center for Advancing Translational Sciences (NCATS), 2012).
# Out of some 350,000 compounds screened, about 220 (0.063%) were called active. This list was built around the results that the source calls inconclusive (neither active nor inactive); the mix of calls is not that of the screen. The call rests on the fitted dose curve; in most records, active means well fitted activation curve with a large enough effect; inconclusive means small, poorly fitted or top-dose-only effect; inactive means no such curve, though single readings can be large or run the other way. Potencies of inconclusive entries are doubtful fits and often do not repeat.
# Experiment: qHTS for Activators of Integrin-Mediated Alleviation for Muscular Dystrophy; further: nearly all actives have a fitted effect of over 60% in size;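 on activation: 100% = response of the positive control SU9516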
# Settings: alpha7betagal myoblasts, beta-gal FDG fluorescence, 48 h; activation: at 38.3 µM (top of the series)
# How it was run: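 Alpha7betagal+/- myoblasts (passage 13) were plated 16-24 hr, then exposed to compounds (1:260 dilution of DMSO stock) for 48 hours at 37C. After MPER lysis, β-galactosidase reporter activity was read as FDG fluorescence (ex 480/em 540) after 30 minutes.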
# Potency means the concentration at half of the fitted maximal effect.
Compound,Potency,activation
CCOC(=O)c1c(C)[nH]c(N=Nc2ccc(C)cc2C)c1C,"inconclusive: 5.01 µM [activator, single point]",
O=C(/C=C/c1ccc(-c2ccccc2[N+](=O)[O-])o1)c1ccc(Br)cc1,,inactive: -45.5%
CCCCSc1nc2sc3c(c2c(=O)n1-c1ccccc1)CCN(C)C3,"inconclusive: 1.12 µM [activator, partial curve, poor fit]",
C/C(=N\O)C(=O)NCC1CCNCC1,"inconclusive: 11.2 µM [activator, partial curve, poor fit]",
CCn1nc(NC(=O)COC)c2cc3cc(C)ccc3nc21,"inconclusive: 5.01 µM [activator, single point]",
COc1ccccc1N1CCN(C(=O)Nc2cccc(Cl)c2)CC1,,inactive: 16.8%
CC(=O)N(c1ccc(Cl)cc1)c1cn(C(C)=O)c2ccccc12,"inconclusive: 0.501 µM [activator, full curve, poor fit]",
NC(=O)c1nsc(C(=O)N(c2ccc3c(c2)OCCO3)C(C(=O)NCC2CCCO2)c2ccc(F)cc2)c1N (centres undefined),"inconclusive: 28.2 µM [activator, single point]",
CCOCCCNC(=O)c1c[nH]c2ccc(OCC)cc2c1=O,"inconclusive: 28.2 µM [activator, single point]",
O=c1[nH]nc(-c2ccc(OCc3ccc(Cl)cc3Cl)cc2)o1,"inconclusive: 5.01 µM [activator, single point]",
COc1ccc(NC(=O)CS(=O)CC(=O)Nc2cc(Cl)ccc2OC)cc1 (centres undefined),"inconclusive: 14.1 µM [activator, single point]",
Cc1ccc(C)c(NC(=O)CSc2nncn2C)c1,,inactive: 11.6%
O=C(CCN1CCN(c2ccccc2)CC1)N/N=C/c1ccc([N+](=O)[O-])o1,,inactive: -56.9%
Cn1c(O)c(N=NC(=N)N)c2ccccc21,"inconclusive: 28.2 µM [activator, single point]",
CC(C)Oc1ccc(C(=O)OC(C)C(=O)NC2CCCCC2C)cc1 (centres undefined),,inactive: 22.6%
CC(C)(C)N1CC(C(=O)Nc2cccc(Cl)c2Cl)CC1=O (centres undefined),,inactive: -3.62%
COc1c(C)cc(Br)cc1C(=O)Nc1ccccc1C,"inconclusive: 28.2 µM [activator, single point]",
O=C(Nc1ccc2c(c1)OCO2)C1CCN(C(=O)c2ccc(Cl)cc2)CC1,"inconclusive: 2 µM [activator, partial curve, poor fit]",
CCOc1ccc(CCNS(=O)(=O)c2ccc3c(c2)NC(=O)CC(=O)N3)cc1OCC,"inconclusive: 5.01 µM [activator, partial curve, poor fit]",

# Some of the entries above, reformatted:
Compound	Potency	activation
CCOC(=O)c1c(C)[nH]c(N=Nc2ccc(C)cc2C)c1C	inconclusive: 5.01 µM [activator, single point]	
O=C(/C=C/c1ccc(-c2ccccc2[N+](=O)[O-])o1)c1ccc(Br)cc1		inactive: -45.5%
